Assay results: article PMC11392818

Sequences of proteins named here, by UniProt entry; tags and fusion partners are left off.
UniProt Q8N884: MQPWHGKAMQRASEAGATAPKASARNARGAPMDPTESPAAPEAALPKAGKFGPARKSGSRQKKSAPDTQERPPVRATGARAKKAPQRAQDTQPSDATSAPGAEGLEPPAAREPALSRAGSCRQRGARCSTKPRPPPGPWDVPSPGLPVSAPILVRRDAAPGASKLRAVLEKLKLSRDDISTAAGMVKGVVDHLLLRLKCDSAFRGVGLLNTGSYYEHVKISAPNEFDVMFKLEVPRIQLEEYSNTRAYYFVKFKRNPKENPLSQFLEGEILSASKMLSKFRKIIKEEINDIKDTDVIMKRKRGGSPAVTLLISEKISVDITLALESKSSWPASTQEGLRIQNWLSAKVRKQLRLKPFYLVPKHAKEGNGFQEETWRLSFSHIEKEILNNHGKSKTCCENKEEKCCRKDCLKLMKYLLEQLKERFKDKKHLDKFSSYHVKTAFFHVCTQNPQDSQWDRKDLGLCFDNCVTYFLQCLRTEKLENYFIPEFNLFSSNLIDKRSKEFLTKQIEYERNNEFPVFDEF
UniProt P51532: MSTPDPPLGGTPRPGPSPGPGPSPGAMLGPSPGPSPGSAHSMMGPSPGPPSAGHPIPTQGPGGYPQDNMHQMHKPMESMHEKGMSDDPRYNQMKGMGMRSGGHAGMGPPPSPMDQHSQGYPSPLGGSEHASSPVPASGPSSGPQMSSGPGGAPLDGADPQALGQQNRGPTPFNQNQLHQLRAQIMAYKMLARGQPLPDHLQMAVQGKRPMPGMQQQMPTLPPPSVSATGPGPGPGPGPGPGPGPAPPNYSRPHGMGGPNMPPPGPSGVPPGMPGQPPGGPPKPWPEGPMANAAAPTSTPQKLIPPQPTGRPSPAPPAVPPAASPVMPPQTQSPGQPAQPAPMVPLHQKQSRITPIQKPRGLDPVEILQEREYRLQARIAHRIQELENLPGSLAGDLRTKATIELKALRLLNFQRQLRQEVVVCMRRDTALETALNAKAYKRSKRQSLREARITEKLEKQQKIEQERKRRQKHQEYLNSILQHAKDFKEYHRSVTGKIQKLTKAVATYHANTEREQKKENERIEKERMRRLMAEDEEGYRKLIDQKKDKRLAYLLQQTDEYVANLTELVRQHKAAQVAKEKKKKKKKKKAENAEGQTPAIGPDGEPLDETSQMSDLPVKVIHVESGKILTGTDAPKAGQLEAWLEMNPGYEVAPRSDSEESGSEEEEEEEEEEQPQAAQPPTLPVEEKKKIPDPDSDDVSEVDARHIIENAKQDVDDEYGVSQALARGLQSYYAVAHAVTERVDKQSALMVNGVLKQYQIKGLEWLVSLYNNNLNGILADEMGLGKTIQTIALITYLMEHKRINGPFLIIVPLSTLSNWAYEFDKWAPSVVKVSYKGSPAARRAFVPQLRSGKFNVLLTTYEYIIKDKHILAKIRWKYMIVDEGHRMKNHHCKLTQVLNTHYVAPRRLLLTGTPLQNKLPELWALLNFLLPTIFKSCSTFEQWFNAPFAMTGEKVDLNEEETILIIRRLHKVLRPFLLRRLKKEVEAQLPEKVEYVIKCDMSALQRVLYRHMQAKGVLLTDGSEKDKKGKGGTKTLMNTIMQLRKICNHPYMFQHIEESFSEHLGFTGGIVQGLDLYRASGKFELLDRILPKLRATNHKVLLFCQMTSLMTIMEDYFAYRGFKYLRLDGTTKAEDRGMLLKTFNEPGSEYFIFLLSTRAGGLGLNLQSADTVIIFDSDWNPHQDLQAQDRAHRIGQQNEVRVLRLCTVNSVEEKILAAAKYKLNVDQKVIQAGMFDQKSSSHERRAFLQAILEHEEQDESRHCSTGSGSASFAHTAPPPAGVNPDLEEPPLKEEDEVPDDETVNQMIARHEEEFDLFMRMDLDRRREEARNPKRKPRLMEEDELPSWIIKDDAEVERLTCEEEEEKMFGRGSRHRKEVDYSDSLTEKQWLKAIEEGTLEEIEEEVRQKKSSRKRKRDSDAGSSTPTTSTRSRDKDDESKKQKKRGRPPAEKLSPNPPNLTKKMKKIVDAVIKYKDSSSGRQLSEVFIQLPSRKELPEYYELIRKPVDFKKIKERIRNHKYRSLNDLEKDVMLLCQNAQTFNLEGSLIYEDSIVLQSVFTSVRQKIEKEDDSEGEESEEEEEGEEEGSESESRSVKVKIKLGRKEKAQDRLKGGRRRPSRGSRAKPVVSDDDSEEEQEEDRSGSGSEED
UniProt O60264: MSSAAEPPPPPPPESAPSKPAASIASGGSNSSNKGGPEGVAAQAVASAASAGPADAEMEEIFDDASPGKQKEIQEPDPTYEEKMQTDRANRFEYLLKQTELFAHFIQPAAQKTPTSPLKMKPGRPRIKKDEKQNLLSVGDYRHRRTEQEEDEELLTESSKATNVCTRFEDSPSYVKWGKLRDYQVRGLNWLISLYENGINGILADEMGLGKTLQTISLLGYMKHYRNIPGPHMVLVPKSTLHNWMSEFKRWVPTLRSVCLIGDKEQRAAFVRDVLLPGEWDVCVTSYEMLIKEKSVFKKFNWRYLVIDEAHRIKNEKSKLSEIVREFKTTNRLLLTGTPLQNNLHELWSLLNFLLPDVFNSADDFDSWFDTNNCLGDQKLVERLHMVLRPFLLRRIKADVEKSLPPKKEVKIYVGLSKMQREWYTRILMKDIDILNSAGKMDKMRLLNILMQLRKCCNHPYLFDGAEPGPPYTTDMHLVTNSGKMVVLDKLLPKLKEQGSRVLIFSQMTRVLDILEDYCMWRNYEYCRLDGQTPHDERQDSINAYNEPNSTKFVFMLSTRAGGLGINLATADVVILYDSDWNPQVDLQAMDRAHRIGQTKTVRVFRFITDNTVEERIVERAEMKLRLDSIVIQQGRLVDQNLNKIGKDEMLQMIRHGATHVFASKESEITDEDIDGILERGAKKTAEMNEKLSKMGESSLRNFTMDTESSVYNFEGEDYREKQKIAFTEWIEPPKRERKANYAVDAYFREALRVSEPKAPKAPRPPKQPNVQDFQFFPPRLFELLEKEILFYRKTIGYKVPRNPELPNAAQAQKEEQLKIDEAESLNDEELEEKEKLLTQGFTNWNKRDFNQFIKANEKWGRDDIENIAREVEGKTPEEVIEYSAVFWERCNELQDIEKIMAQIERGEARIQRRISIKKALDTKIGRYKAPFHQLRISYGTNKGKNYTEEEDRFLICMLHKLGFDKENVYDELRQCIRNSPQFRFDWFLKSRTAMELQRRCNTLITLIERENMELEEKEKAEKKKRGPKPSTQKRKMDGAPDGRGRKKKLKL
UniProt Q86U86: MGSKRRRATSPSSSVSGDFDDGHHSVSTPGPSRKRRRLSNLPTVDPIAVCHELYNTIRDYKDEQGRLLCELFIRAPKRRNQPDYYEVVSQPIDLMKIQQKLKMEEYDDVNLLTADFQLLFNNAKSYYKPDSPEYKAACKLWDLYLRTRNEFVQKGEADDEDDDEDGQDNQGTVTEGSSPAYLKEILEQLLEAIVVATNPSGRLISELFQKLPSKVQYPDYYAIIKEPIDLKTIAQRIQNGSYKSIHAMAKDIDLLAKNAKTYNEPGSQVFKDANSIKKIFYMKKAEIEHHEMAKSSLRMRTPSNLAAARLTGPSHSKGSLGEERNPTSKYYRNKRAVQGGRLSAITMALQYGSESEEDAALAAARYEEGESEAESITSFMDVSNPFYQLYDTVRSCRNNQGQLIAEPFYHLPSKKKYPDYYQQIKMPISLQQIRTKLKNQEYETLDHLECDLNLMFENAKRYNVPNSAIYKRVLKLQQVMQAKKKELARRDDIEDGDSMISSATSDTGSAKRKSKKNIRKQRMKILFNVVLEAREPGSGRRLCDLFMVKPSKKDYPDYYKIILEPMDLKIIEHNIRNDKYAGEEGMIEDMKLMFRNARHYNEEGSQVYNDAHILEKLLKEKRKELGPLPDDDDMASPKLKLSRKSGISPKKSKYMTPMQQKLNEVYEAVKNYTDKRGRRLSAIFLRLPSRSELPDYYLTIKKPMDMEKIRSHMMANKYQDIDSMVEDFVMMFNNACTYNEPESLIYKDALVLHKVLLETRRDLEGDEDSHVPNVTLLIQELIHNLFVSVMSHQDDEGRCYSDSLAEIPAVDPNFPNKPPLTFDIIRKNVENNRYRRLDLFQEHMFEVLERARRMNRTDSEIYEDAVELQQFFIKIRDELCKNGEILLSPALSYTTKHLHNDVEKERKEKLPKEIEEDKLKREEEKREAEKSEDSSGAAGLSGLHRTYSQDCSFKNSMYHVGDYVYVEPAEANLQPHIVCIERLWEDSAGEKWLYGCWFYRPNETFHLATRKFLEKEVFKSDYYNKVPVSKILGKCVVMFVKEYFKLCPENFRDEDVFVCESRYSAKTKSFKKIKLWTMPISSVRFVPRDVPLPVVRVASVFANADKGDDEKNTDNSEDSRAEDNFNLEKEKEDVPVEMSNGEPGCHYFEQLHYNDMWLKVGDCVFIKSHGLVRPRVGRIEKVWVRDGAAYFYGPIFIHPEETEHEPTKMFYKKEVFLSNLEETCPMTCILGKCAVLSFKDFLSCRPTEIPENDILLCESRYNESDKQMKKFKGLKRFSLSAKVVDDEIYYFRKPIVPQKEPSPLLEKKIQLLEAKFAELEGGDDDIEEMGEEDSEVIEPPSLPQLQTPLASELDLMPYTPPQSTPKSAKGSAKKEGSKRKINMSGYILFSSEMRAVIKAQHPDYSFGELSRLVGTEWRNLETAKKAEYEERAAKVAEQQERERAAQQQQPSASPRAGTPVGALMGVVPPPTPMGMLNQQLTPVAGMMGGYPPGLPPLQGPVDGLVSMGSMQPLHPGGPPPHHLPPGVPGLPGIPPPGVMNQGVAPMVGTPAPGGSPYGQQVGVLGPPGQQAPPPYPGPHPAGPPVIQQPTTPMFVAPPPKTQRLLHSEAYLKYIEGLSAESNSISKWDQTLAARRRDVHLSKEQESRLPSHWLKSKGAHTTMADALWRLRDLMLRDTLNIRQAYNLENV
UniProt Q8TAQ2: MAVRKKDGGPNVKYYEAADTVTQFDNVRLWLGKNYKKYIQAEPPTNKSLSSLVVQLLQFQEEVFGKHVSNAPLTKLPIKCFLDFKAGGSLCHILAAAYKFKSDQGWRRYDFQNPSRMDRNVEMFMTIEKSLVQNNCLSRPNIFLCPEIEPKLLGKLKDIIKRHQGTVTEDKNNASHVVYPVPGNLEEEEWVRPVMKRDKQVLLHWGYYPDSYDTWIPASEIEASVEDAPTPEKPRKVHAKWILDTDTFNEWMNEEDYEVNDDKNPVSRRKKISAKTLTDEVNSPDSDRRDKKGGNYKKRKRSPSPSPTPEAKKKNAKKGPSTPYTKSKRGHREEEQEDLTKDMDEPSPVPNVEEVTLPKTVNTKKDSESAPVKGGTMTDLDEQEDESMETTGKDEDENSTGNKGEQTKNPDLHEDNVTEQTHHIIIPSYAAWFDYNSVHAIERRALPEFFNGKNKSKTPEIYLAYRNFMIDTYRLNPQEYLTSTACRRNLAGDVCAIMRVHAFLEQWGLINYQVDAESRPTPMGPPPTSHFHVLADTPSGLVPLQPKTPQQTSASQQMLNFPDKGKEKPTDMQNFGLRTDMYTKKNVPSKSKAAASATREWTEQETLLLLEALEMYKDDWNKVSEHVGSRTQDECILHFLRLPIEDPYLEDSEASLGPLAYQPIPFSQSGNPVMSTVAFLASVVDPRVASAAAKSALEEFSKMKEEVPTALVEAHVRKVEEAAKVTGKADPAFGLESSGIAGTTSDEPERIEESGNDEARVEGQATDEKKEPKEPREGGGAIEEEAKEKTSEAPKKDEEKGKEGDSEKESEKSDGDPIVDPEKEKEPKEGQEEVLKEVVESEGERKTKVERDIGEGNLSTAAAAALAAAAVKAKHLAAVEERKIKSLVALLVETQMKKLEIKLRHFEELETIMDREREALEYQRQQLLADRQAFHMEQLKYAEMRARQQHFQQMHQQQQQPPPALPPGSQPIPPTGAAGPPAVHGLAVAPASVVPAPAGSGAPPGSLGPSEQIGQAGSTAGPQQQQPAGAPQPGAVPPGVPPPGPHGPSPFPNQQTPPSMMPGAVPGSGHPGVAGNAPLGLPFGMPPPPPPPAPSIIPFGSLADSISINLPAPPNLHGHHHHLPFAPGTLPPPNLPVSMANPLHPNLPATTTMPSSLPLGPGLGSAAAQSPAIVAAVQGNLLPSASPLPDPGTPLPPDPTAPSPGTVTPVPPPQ

Biological target: cGAS (cyclic GMP-AMP synthase) of HCT116 cells (human (endogenous in HCT116)) (UniProt Q8N884)
Assay: affinity purification with mass spectrometry; cGAS immunoprecipitated from the intranuclear (chromatin) fraction of HCT116 cells (ProteoExtract Kit and Chromatin Extraction Kit), LC-MS/MS, compared with a control group

For SMARCA4 (from UniProt P51532 1-1647), the binding was “binds”.

In the case of SMARCA5 (from UniProt O60264 1-1052), the binding is reported as “binds”.

For SMARCD1 (from UniProt Q96GM5 1-515), the binding was “binds”.

With PBRM1 (from UniProt Q86U86 1-1689) the binding was “binds”.

For SMARCC2 (from UniProt Q8TAQ2 1-1214), the binding was “binds”.

Results are given in words; binding and its absence hold for the method and conditions named. Binding seen in cells or lysates may run through a third protein. A yes stands for co-enrichment or nearness to the bait. Other partners may have been found.
